Test results as given in the supplement of paper PMC12823440, “Inhibitors supercharge kinase turnover through native proteolytic circuits” (Nature, 2025).
Counter-ions that a name gives are not always drawn. This is one part of the list. Hit calls seldom repeat between salt and free forms of one compound.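 In K562 cells expressing nanoluciferase-fused kinases, luminescence was recorded at 4 h intervals between 2 and 18 h, normalized as percent of control with DMSO at 100% and a positive control at 0%. A significant (2 sigma) signal drop marks a time point as decreased. The authors' rule for a hit is not shown and takes in more than the number of time points.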

Amino acid sequences for entries named in this document (tags omitted). A change or cut given only in a name is not applied to a line headed by its entry.
UniProt Q13131: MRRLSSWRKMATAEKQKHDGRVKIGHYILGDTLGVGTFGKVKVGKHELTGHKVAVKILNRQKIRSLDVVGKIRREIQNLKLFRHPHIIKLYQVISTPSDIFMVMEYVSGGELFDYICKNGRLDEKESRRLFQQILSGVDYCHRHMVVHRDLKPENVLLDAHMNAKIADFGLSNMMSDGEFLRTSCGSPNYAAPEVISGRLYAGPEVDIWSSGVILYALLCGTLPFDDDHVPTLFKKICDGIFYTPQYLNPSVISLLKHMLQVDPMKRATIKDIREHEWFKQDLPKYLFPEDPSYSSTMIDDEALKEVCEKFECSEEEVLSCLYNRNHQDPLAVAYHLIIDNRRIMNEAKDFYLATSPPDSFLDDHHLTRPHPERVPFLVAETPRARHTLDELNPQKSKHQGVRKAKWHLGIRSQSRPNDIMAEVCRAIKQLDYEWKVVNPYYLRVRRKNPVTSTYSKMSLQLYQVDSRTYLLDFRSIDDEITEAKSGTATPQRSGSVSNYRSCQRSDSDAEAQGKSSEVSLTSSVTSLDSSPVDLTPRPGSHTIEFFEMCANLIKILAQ
UniProt P07949, whole entry, looked up: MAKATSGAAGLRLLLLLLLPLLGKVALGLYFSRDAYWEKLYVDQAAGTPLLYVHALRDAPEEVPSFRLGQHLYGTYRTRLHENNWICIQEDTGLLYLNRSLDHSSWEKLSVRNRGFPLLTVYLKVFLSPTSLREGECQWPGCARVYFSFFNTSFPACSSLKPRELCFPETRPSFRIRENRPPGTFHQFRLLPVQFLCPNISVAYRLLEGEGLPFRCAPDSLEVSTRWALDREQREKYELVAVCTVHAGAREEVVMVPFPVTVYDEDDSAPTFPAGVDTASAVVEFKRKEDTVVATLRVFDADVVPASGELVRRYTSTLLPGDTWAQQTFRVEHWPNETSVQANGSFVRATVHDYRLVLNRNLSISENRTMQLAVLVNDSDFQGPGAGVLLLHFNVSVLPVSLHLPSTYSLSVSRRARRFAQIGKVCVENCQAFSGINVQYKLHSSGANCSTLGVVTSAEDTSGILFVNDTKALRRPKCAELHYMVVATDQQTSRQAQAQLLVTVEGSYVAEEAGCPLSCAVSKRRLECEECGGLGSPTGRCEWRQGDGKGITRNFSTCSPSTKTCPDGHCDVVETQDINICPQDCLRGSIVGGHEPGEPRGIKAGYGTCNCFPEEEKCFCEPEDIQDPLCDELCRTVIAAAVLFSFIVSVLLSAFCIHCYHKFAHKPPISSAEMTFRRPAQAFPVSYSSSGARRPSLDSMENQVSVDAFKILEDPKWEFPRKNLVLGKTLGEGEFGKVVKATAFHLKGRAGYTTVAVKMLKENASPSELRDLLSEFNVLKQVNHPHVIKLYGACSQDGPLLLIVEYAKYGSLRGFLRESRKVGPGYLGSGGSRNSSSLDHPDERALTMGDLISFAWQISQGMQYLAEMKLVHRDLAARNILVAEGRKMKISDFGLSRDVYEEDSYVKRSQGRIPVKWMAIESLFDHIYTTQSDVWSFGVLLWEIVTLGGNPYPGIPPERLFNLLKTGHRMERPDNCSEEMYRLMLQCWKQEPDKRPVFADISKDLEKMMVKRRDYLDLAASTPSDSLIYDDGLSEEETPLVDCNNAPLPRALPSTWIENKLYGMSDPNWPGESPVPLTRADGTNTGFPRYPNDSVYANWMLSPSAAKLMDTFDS
UniProt P07949, whole entry M918T, looked up: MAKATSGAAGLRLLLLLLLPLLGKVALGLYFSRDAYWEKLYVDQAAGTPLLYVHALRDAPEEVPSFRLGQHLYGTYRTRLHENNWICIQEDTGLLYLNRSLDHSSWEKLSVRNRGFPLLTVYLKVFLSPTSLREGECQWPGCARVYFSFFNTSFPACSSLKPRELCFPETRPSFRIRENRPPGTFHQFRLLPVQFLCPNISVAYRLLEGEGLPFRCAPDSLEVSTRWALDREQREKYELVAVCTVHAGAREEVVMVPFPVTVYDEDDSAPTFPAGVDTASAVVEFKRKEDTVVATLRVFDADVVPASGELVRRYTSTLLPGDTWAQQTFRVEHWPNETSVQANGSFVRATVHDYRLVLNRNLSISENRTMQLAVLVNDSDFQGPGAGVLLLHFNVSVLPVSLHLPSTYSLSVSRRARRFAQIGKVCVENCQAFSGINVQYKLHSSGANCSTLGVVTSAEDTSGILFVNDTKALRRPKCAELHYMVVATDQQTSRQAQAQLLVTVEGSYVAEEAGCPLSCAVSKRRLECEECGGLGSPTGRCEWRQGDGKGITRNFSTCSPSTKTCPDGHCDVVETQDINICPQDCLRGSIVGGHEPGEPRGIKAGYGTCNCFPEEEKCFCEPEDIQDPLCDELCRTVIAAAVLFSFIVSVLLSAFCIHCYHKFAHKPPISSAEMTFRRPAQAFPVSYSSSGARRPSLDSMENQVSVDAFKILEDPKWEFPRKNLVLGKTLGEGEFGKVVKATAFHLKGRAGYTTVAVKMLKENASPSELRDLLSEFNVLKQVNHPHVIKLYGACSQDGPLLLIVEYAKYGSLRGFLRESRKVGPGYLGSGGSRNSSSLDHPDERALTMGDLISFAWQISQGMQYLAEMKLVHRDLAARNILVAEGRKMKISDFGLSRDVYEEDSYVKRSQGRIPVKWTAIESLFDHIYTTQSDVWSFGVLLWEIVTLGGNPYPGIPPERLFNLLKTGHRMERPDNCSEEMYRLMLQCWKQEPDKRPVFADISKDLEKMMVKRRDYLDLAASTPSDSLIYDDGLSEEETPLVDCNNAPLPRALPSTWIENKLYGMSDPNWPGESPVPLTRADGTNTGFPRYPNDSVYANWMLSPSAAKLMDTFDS
UniProt Q9BRS2: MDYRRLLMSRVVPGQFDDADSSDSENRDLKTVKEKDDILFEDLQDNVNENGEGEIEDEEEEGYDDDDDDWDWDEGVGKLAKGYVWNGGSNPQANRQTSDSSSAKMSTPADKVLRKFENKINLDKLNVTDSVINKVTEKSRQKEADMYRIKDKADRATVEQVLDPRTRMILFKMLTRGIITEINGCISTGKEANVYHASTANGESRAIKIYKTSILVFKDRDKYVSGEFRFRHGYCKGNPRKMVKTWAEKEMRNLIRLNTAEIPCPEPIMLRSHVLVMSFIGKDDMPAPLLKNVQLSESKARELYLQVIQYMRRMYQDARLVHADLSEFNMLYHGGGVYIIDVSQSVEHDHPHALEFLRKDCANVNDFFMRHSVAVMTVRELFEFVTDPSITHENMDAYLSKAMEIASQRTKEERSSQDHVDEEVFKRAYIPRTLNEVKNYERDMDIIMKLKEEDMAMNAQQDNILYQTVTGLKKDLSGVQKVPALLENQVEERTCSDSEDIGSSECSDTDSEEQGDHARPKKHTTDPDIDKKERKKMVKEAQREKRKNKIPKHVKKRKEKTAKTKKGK
UniProt Q13546: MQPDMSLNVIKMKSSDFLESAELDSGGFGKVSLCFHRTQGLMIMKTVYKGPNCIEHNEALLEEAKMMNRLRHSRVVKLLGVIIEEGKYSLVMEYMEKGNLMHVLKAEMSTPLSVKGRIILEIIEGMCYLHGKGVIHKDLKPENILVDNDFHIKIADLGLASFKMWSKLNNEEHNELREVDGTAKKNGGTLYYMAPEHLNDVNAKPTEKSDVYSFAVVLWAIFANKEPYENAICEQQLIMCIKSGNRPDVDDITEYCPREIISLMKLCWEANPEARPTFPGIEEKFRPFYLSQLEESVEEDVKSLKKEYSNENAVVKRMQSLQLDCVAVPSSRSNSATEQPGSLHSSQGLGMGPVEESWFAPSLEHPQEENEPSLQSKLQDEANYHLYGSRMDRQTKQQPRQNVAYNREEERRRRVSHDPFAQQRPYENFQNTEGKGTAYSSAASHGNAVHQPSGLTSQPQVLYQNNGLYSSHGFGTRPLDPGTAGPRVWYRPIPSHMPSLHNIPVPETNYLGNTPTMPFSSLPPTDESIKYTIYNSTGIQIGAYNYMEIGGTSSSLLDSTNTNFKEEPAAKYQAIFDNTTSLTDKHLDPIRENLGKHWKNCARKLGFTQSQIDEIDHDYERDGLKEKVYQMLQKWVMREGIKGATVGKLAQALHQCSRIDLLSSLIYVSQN
UniProt Q01974, whole entry: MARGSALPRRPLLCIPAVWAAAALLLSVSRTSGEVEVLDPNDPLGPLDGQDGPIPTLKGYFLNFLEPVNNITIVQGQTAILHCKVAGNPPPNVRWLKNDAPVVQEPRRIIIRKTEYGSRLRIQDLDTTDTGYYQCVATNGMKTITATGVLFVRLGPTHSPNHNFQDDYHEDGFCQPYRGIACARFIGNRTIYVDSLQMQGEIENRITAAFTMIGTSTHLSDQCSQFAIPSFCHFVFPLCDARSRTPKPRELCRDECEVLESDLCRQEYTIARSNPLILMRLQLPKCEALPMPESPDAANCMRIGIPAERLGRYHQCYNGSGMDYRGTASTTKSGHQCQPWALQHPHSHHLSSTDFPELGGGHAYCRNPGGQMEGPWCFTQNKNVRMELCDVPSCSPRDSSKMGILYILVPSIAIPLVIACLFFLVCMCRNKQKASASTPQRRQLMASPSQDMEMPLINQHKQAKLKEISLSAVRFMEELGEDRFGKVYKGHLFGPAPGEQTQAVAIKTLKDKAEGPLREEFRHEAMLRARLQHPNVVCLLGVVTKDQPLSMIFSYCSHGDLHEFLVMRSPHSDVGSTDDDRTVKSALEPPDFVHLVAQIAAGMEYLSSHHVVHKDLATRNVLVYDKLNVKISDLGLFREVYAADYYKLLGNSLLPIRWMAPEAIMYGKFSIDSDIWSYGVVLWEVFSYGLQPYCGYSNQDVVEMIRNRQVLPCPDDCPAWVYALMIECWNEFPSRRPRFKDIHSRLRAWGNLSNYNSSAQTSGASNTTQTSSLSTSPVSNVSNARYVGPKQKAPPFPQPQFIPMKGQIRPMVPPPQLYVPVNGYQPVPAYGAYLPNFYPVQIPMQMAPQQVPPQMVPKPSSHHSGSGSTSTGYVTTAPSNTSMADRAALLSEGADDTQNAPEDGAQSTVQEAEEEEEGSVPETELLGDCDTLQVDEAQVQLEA
UniProt Q9NYA1, whole entry: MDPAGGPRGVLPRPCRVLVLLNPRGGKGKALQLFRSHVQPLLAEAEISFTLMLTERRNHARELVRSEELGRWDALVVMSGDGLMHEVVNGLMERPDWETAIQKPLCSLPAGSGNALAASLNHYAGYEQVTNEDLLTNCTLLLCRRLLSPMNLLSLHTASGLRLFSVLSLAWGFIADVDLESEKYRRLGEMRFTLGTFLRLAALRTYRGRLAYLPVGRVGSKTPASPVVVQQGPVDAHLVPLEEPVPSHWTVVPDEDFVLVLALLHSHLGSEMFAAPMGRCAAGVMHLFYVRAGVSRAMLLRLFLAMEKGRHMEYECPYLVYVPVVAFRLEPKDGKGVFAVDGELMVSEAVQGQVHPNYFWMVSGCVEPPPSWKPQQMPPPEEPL
UniProt Q9Y6E0: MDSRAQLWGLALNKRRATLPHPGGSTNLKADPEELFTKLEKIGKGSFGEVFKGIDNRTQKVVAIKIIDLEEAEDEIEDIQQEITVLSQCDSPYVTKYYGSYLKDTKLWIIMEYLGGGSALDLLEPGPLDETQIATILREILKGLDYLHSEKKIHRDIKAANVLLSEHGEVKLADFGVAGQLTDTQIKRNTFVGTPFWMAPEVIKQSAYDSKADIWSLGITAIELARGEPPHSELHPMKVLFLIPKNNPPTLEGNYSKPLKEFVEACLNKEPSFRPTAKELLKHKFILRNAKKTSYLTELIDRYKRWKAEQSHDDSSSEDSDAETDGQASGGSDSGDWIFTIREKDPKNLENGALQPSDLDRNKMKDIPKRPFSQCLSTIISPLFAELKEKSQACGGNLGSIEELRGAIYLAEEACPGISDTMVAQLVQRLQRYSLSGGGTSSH

Tests used:
Assay in all cases: kinase-Nluc reporter destabilization hit call (1 = scored as downregulated) (binary); higher = compound decreases kinase abundance
Details in all cases: K562; 2-18 h
PDPK1 = PDPK1 (UniProt O15530)
PIK4CA = PIK4CA (UniProt P42356)
PIK4CB = PIK4CB (UniProt Q9UBF8)
PLK1 = PLK1 (UniProt P53350)
PRKAA1 = PRKAA1 (UniProt Q13131)
PRKCA = PRKCA (UniProt P17252)
PTK2 = PTK2 (UniProt Q05397)
PTK2B = PTK2B (UniProt Q14289)
RAF1 = RAF1 (UniProt P04049)
[1] = target: RAF1_S257L (clone: RAF1_mut) (UniProt P04049)
RET = RET (UniProt P07949)
[2] = target: RET_M918T (clone: RET_mut) (UniProt P07949)
RIOK1 = RIOK1 (UniProt Q9BRS2)
RIPK1 = RIPK1 (UniProt Q13546)
RIPK2 = RIPK2 (UniProt O43353)
ROR2 = ROR2 (UniProt Q01974)
RPS6KA1 = RPS6KA1 (UniProt Q15418)
SPHK1 = SPHK1 (UniProt Q9NYA1)
SRC = SRC (UniProt P12931)
STK24 = STK24 (UniProt Q9Y6E0)

Measured: kinase-Nluc reporter destabilization hit call

CCS(=O)(=O)Nc1ccc2[nH]c(O)c(C(=Nc3ccc(CN4CCCCC4)cc3)c3ccccc3)c2c1 [Hesperadin] (2.5 µM)
active: [1] 1
inactive: PDPK1 = 0 | PIK4CA 0 | PIK4CB 0 | PLK1 = 0 | PRKAA1 = 0 | PRKCA 0 | PTK2 = 0 | PTK2B 0 | RAF1 = 0 | RET 0 | [2] 0 | RIOK1 = 0 | RIPK1 = 0 | RIPK2 = 0 | ROR2 = 0 | RPS6KA1 = 0 | SPHK1 = 0 | SRC 0 | STK24 = 0

CNC(=O)c1cc(COc2nnc(Nc3ccc(Cl)cc3)c3ccoc23)ccn1 [Telatinib] (10 µM)
active: PTK2 = 1
inactive: PDPK1 = 0 | PIK4CA 0 | PIK4CB 0 | PLK1 = 0 | PRKAA1 = 0 | PRKCA 0 | PTK2B 0 | RAF1 = 0 | [1] 0 | RET 0 | [2] 0 | RIOK1 = 0 | RIPK1 = 0 | RIPK2 = 0 | ROR2 = 0 | RPS6KA1 = 0 | SPHK1 = 0 | SRC 0 | STK24 = 0

CNc1nc(Nc2ccc(C(=O)N3CCOCC3)cc2OC)nc2[nH]cc(Cl)c12 (2.5 µM)
inactive: PDPK1 = 0 | PIK4CA 0 | PIK4CB 0 | PLK1 = 0 | PRKAA1 = 0 | PRKCA 0 | PTK2 = 0 | PTK2B 0 | RAF1 = 0 | [1] 0 | RET 0 | [2] 0 | RIOK1 = 0 | RIPK1 = 0 | RIPK2 = 0 | ROR2 = 0 | RPS6KA1 = 0 | SPHK1 = 0 | SRC 0 | STK24 = 0

CS(=O)(=O)Nc1cc(-c2ccc3ncnc(Nc4ccc(F)c(Cl)c4)c3c2)cnc1Cl (2.5 µM)
inactive: PDPK1 = 0 | PIK4CA 0 | PIK4CB 0 | PLK1 = 0 | PRKAA1 = 0 | PRKCA 0 | PTK2 = 0 | PTK2B 0 | RAF1 = 0 | [1] 0 | RET 0 | [2] 0 | RIOK1 = 0 | RIPK1 = 0 | RIPK2 = 0 | ROR2 = 0 | RPS6KA1 = 0 | SPHK1 = 0 | SRC 0 | STK24 = 0

CCOC(=O)N1CCN(C(=O)[C@H](Cc2cccc(C(=N)N)c2)NS(=O)(=O)c2c(C(C)C)cc(C(C)C)cc2C(C)C)CC1 (10 µM)
inactive: PDPK1 = 0 | PIK4CA 0 | PIK4CB 0 | PLK1 = 0 | PRKAA1 = 0 | PRKCA 0 | PTK2 = 0 | PTK2B 0 | RAF1 = 0 | [1] 0 | RET 0 | [2] 0 | RIOK1 = 0 | RIPK1 = 0 | RIPK2 = 0 | ROR2 = 0 | RPS6KA1 = 0 | SPHK1 = 0 | SRC 0 | STK24 = 0

C=C(CC[C@@H](C(=O)O)[C@H]1[C@H](O)C[C@@]2(C)C3=C(CC[C@]12C)[C@@]1(C)CC[C@H](OC(C)=O)C(C)(C)[C@@H]1CC3)C(C)C [Pachymic acid] (10 µM)
inactive: PDPK1 = 0 | PIK4CA 0 | PIK4CB 0 | PLK1 = 0 | PRKAA1 = 0 | PRKCA 0 | PTK2 = 0 | PTK2B 0 | RAF1 = 0 | [1] 0 | RET 0 | [2] 0 | RIOK1 = 0 | RIPK1 = 0 | RIPK2 = 0 | ROR2 = 0 | RPS6KA1 = 0 | SPHK1 = 0 | SRC 0 | STK24 = 0

COc1cc2c(N3CCN(C(=O)Nc4ccc(OC(C)C)cc4)CC3)ncnc2cc1OCCCN1CCCCC1 [Tandutinib (hydrochloride)] (10 µM)
inactive: PDPK1 = 0 | PIK4CA 0 | PIK4CB 0 | PLK1 = 0 | PRKAA1 = 0 | PRKCA 0 | PTK2 = 0 | PTK2B 0 | RAF1 = 0 | [1] 0 | RET 0 | [2] 0 | RIOK1 = 0 | RIPK1 = 0 | RIPK2 = 0 | ROR2 = 0 | RPS6KA1 = 0 | SPHK1 = 0 | SRC 0 | STK24 = 0

Cn1ncc(Cl)c1-c1cc(C(=O)N[C@H](CN)Cc2ccc(F)c(F)c2)oc1Cl [Uprosertib] (10 µM)
inactive: PDPK1 = 0 | PIK4CA 0 | PIK4CB 0 | PLK1 = 0 | PRKAA1 = 0 | PRKCA 0 | PTK2 = 0 | PTK2B 0 | RAF1 = 0 | [1] 0 | RET 0 | [2] 0 | RIOK1 = 0 | RIPK1 = 0 | RIPK2 = 0 | ROR2 = 0 | RPS6KA1 = 0 | SPHK1 = 0 | SRC 0 | STK24 = 0

Cn1cc(-c2cnn3c(N)c(Br)c([C@@H]4CCCNC4)nc23)cn1 (2.5 µM)
inactive: PDPK1 = 0 | PIK4CA 0 | PIK4CB 0 | PLK1 = 0 | PRKAA1 = 0 | PRKCA 0 | PTK2 = 0 | PTK2B 0 | RAF1 = 0 | [1] 0 | RET 0 | [2] 0 | RIOK1 = 0 | RIPK1 = 0 | RIPK2 = 0 | ROR2 = 0 | RPS6KA1 = 0 | SPHK1 = 0 | SRC 0 | STK24 = 0

Cc1ccc2cc(-c3c(C)ccc(C(=O)c4c(-c5ccccc5)n(C)n(-c5ccccc5)c4=O)c3N)ccc2n1 (2.5 µM)
inactive: PDPK1 = 0 | PIK4CA 0 | PIK4CB 0 | PLK1 = 0 | PRKAA1 = 0 | PRKCA 0 | PTK2 = 0 | PTK2B 0 | RAF1 = 0 | [1] 0 | RET 0 | [2] 0 | RIOK1 = 0 | RIPK1 = 0 | RIPK2 = 0 | ROR2 = 0 | RPS6KA1 = 0 | SPHK1 = 0 | SRC 0 | STK24 = 0

Nc1ncnc2c1c(-c1cccc(OCc3ccccc3)c1)cn2C1CC(CN2CCC2)C1 (stereo not given) (2.5 µM)
inactive: PDPK1 = 0 | PIK4CA 0 | PIK4CB 0 | PLK1 = 0 | PRKAA1 = 0 | PRKCA 0 | PTK2 = 0 | PTK2B 0 | RAF1 = 0 | [1] 0 | RET 0 | [2] 0 | RIOK1 = 0 | RIPK1 = 0 | RIPK2 = 0 | ROR2 = 0 | RPS6KA1 = 0 | SPHK1 = 0 | SRC 0 | STK24 = 0

Two compounds drawn at random from those above, as already listed:
Cn1cc(-c2cnn3c(N)c(Br)c([C@@H]4CCCNC4)nc23)cn1 (2.5 µM)
inactive: PDPK1 = 0 | PIK4CA 0 | PIK4CB 0 | PLK1 = 0 | PRKAA1 = 0 | PRKCA 0 | PTK2 = 0 | PTK2B 0 | RAF1 = 0 | [1] 0 | RET 0 | [2] 0 | RIOK1 = 0 | RIPK1 = 0 | RIPK2 = 0 | ROR2 = 0 | RPS6KA1 = 0 | SPHK1 = 0 | SRC 0 | STK24 = 0

Cn1ncc(Cl)c1-c1cc(C(=O)N[C@H](CN)Cc2ccc(F)c(F)c2)oc1Cl [Uprosertib] (10 µM)
inactive: PDPK1 = 0 | PIK4CA 0 | PIK4CB 0 | PLK1 = 0 | PRKAA1 = 0 | PRKCA 0 | PTK2 = 0 | PTK2B 0 | RAF1 = 0 | [1] 0 | RET 0 | [2] 0 | RIOK1 = 0 | RIPK1 = 0 | RIPK2 = 0 | ROR2 = 0 | RPS6KA1 = 0 | SPHK1 = 0 | SRC 0 | STK24 = 0

The listing continues:

CC1(C)C(O[C@@H]2OC[C@@H](O)[C@H](O)[C@H]2O)CC[C@]23CC24CC[C@]2(C)[C@@H]([C@@]5(C)CC[C@@H](C(C)(C)O)O5)[C@H](O)C[C@@]2(C)C4C[C@@H](O[C@@H]2O[C@H](CO)[C@@H](O)[C@H](O)[C@H]2O)C13 (stereo not given in full) [Astragaloside IV] (10 µM)
inactive: PDPK1 = 0 | PIK4CA 0 | PIK4CB 0 | PLK1 = 0 | PRKAA1 = 0 | PRKCA 0 | PTK2 = 0 | PTK2B 0 | RAF1 = 0 | [1] 0 | RET 0 | [2] 0 | RIOK1 = 0 | RIPK1 = 0 | RIPK2 = 0 | ROR2 = 0 | RPS6KA1 = 0 | SPHK1 = 0 | SRC 0 | STK24 = 0

COc1cc(OC2CCN(C)CC2)ccc1Nc1ncc2c(n1)n(C1CCCC1)c(=O)n2C (10 µM)
inactive: PDPK1 = 0 | PIK4CA 0 | PIK4CB 0 | PLK1 = 0 | PRKAA1 = 0 | PRKCA 0 | PTK2 = 0 | PTK2B 0 | RAF1 = 0 | [1] 0 | RET 0 | [2] 0 | RIOK1 = 0 | RIPK1 = 0 | RIPK2 = 0 | ROR2 = 0 | RPS6KA1 = 0 | SPHK1 = 0 | SRC 0 | STK24 = 0

CCOc1ccc2cc(-c3nn(CC4CCN(C)CC4)c4ncnc(N)c34)ccc2n1 (10 µM)
inactive: PDPK1 = 0 | PIK4CA 0 | PIK4CB 0 | PLK1 = 0 | PRKAA1 = 0 | PRKCA 0 | PTK2 = 0 | PTK2B 0 | RAF1 = 0 | [1] 0 | RET 0 | [2] 0 | RIOK1 = 0 | RIPK1 = 0 | RIPK2 = 0 | ROR2 = 0 | RPS6KA1 = 0 | SPHK1 = 0 | SRC 0 | STK24 = 0

Nc1ccc(-c2cnc(N)c(-c3ccc(Cl)cc3)c2)cn1 (10 µM)
inactive: PDPK1 = 0 | PIK4CA 0 | PIK4CB 0 | PLK1 = 0 | PRKAA1 = 0 | PRKCA 0 | PTK2 = 0 | PTK2B 0 | RAF1 = 0 | [1] 0 | RET 0 | [2] 0 | RIOK1 = 0 | RIPK1 = 0 | RIPK2 = 0 | ROR2 = 0 | RPS6KA1 = 0 | SPHK1 = 0 | SRC 0 | STK24 = 0

CC1CCc2c(cc(Br)c(F)c2Br)N1C=O (stereo not given) (10 µM)
inactive: PDPK1 = 0 | PIK4CA 0 | PIK4CB 0 | PLK1 = 0 | PRKAA1 = 0 | PRKCA 0 | PTK2 = 0 | PTK2B 0 | RAF1 = 0 | [1] 0 | RET 0 | [2] 0 | RIOK1 = 0 | RIPK1 = 0 | RIPK2 = 0 | ROR2 = 0 | RPS6KA1 = 0 | SPHK1 = 0 | SRC 0 | STK24 = 0

FC(F)(F)c1ccc(CNc2ccc(Cc3c[nH]c4ncccc34)cn2)cc1 (10 µM)
inactive: PDPK1 = 0 | PIK4CA 0 | PIK4CB 0 | PLK1 = 0 | PRKAA1 = 0 | PRKCA 0 | PTK2 = 0 | PTK2B 0 | RAF1 = 0 | [1] 0 | RET 0 | [2] 0 | RIOK1 = 0 | RIPK1 = 0 | RIPK2 = 0 | ROR2 = 0 | RPS6KA1 = 0 | SPHK1 = 0 | SRC 0 | STK24 = 0

COc1cc(/C=C/C(=O)NCC(O)c2ccc(O)cc2)ccc1O (stereo not given) [N-Feruloyloctopamine] (2.5 µM)
inactive: PDPK1 = 0 | PIK4CA 0 | PIK4CB 0 | PLK1 = 0 | PRKAA1 = 0 | PRKCA 0 | PTK2 = 0 | PTK2B 0 | RAF1 = 0 | [1] 0 | RET 0 | [2] 0 | RIOK1 = 0 | RIPK1 = 0 | RIPK2 = 0 | ROR2 = 0 | RPS6KA1 = 0 | SPHK1 = 0 | SRC 0 | STK24 = 0
